{"source": "the supplement of paper PMC11438910", "binders": {"B1": {"name": "4-99.5 (protein)", "chain 1": "QVQLQESGPGLVKPSETLSLTCAVSGYSISSGYYWGWIRQPPGKGLEYIGYISGSSGSPYYNPSLKSRVTISKDTSKNQFSLKLSSATAADTAVYYCARRQVGIGFDYWGQGVLVTVSS", "chain 2": "QAAPTQPPSVSGSPGQSVTISCTGTSSDIGYYNAVSWYQQHPGKAPKLMIYEVSKRPSGVSDRFSGSKSGNTASLTISGLQAEDEADYYCSSYAGSNTYIFGAGTRLTVL"}}, "assay_in_all_cases": "fluorescence intensity of antibody binding to polysaccharide-coupled beads; higher = stronger binding", "key": {"[1]": {"target": "pneumococcal polysaccharide Pn38", "experimental": "(§1)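 Recombinant rhesus-murine chimeric IgG1 antibodies were tested against antigen-coupled MagPlex beads in a 96-plex Luminex direct immunoassay (dLIA). The beads carried pneumococcal capsular polysaccharides of 93 serotypes plus C-polysaccharides. Antibody was added at 0.1–12,500 ng/mL for 1 h, then PE anti-mouse IgG, and net MFI was read on a Bio-Plex 3D. Only the rhesus variable regions are printed; constant regions are murine IgG1/kappa/lambda, and the signal peptide is MGWSCIILFLVATATGVHS.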"}, "[2]": {"target": "pneumococcal polysaccharide Pn39", "experimental": "as §1"}, "[3]": {"target": "pneumococcal polysaccharide Pn4", "experimental": "as §1"}, "[4]": {"target": "pneumococcal polysaccharide Pn40", "experimental": "as §1"}, "[5]": {"target": "pneumococcal polysaccharide Pn41A", "experimental": "as §1"}, "[6]": {"target": "pneumococcal polysaccharide Pn41F", "experimental": "as §1"}, "[7]": {"target": "pneumococcal polysaccharide Pn42", "experimental": "as §1"}, "[8]": {"target": "pneumococcal polysaccharide Pn43", "experimental": "as §1"}, "[9]": {"target": "pneumococcal polysaccharide Pn44", "experimental": "as §1"}, "[10]": {"target": "pneumococcal polysaccharide Pn45", "experimental": "as §1"}, "[11]": {"target": "pneumococcal polysaccharide Pn46", "experimental": "as §1"}, "[12]": {"target": "pneumococcal polysaccharide Pn47A", "experimental": "as §1"}, "[13]": {"conditions": "antibody concentration 81.7561 ng/mL"}, "[14]": {"conditions": "antibody concentration 437.17 ng/mL"}, "[15]": {"conditions": "antibody concentration 2337.65 ng/mL"}, "[16]": {"conditions": "antibody concentration 12500 ng/mL"}, "[17]": {"conditions": "antibody concentration 0.1 ng/mL"}, "[18]": {"conditions": "antibody concentration 0.534724 ng/mL"}, "[19]": {"conditions": "antibody concentration 2.8593 ng/mL"}, "[20]": {"conditions": "antibody concentration 15.2894 ng/mL"}}, "note": "The other results are listed elsewhere or left out. The signal is at background level for most entries.", "data": [{"binder": "B1", "values": [{"measurement": "fluorescence intensity", "setting": "[1]; [13]", "result": 25.2, "unit": "MFI"}, {"measurement": "fluorescence intensity", "setting": "[1]; [14]", "result": 27, "unit": "MFI"}, {"measurement": "fluorescence intensity", "setting": "[1]; [15]", "result": 29.5, "unit": "MFI"}, {"measurement": "fluorescence intensity", "setting": "[1]; [16]", "result": 36, "unit": "MFI"}, {"measurement": "fluorescence intensity", "setting": "[2]; [17]", "result": 19.5, "unit": "MFI"}, {"measurement": "fluorescence intensity", "setting": "[2]; [18]", "result": 18.5, "unit": "MFI"}, {"measurement": "fluorescence intensity", "setting": "[2]; [19]", "result": 18, "unit": "MFI"}, {"measurement": "fluorescence intensity", "setting": "[2]; [20]", "result": 18, "unit": "MFI"}, {"measurement": "fluorescence intensity", "setting": "[2]; [13]", "result": 19.2, "unit": "MFI"}, {"measurement": "fluorescence intensity", "setting": "[2]; [14]", "result": 18, "unit": "MFI"}, {"measurement": "fluorescence intensity", "setting": "[2]; [15]", "result": 19.5, "unit": "MFI"}, {"measurement": "fluorescence intensity", "setting": "[2]; [16]", "result": 31, "unit": "MFI"}, {"measurement": "fluorescence intensity", "setting": "[3]; [17]", "result": 18.5, "unit": "MFI"}, {"measurement": "fluorescence intensity", "setting": "[3]; [18]", "result": 19.2, "unit": "MFI"}, {"measurement": "fluorescence intensity", "setting": "[3]; [19]", "result": 19.5, "unit": "MFI"}, {"measurement": "fluorescence intensity", "setting": "[3]; [20]", "result": 19, "unit": "MFI"}, {"measurement": "fluorescence intensity", "setting": "[3]; [13]", "result": 18.5, "unit": "MFI"}, {"measurement": "fluorescence intensity", "setting": "[3]; [14]", "result": 20.5, "unit": "MFI"}, {"measurement": "fluorescence intensity", "setting": "[3]; [15]", "result": 23, "unit": "MFI"}, {"measurement": "fluorescence intensity", "setting": "[3]; [16]", "result": 31.8, "unit": "MFI"}, {"measurement": "fluorescence intensity", "setting": "[4]; [17]", "result": 15.5, "unit": "MFI"}, {"measurement": "fluorescence intensity", "setting": "[4]; [18]", "result": 16.5, "unit": "MFI"}, {"measurement": "fluorescence intensity", "setting": "[4]; [19]", "result": 16, "unit": "MFI"}, {"measurement": "fluorescence intensity", "setting": "[4]; [20]", "result": 18, "unit": "MFI"}, {"measurement": "fluorescence intensity", "setting": "[4]; [13]", "result": 17, "unit": "MFI"}, {"measurement": "fluorescence intensity", "setting": "[4]; [14]", "result": 17, "unit": "MFI"}, {"measurement": "fluorescence intensity", "setting": "[4]; [15]", "result": 18.5, "unit": "MFI"}, {"measurement": "fluorescence intensity", "setting": "[4]; [16]", "result": 31.5, "unit": "MFI"}, {"measurement": "fluorescence intensity", "setting": "[5]; [17]", "result": 23, "unit": "MFI"}, {"measurement": "fluorescence intensity", "setting": "[5]; [18]", "result": 23.5, "unit": "MFI"}, {"measurement": "fluorescence intensity", "setting": "[5]; [19]", "result": 25, "unit": "MFI"}, {"measurement": "fluorescence intensity", "setting": "[5]; [20]", "result": 23.5, "unit": "MFI"}, {"measurement": "fluorescence intensity", "setting": "[5]; [13]", "result": 23.5, "unit": "MFI"}, {"measurement": "fluorescence intensity", "setting": "[5]; [14]", "result": 24, "unit": "MFI"}, {"measurement": "fluorescence intensity", "setting": "[5]; [15]", "result": 25, "unit": "MFI"}, {"measurement": "fluorescence intensity", "setting": "[5]; [16]", "result": 27.2, "unit": "MFI"}, {"measurement": "fluorescence intensity", "setting": "[6]; [17]", "result": 13.5, "unit": "MFI"}, {"measurement": "fluorescence intensity", "setting": "[6]; [18]", "result": 13.5, "unit": "MFI"}, {"measurement": "fluorescence intensity", "setting": "[6]; [19]", "result": 13, "unit": "MFI"}, {"measurement": "fluorescence intensity", "setting": "[6]; [20]", "result": 14, "unit": "MFI"}, {"measurement": "fluorescence intensity", "setting": "[6]; [13]", "result": 14, "unit": "MFI"}, {"measurement": "fluorescence intensity", "setting": "[6]; [14]", "result": 13.5, "unit": "MFI"}, {"measurement": "fluorescence intensity", "setting": "[6]; [15]", "result": 15, "unit": "MFI"}, {"measurement": "fluorescence intensity", "setting": "[6]; [16]", "result": 19.2, "unit": "MFI"}, {"measurement": "fluorescence intensity", "setting": "[7]; [17]", "result": 11.5, "unit": "MFI"}, {"measurement": "fluorescence intensity", "setting": "[7]; [18]", "result": 11.5, "unit": "MFI"}, {"measurement": "fluorescence intensity", "setting": "[7]; [19]", "result": 12.5, "unit": "MFI"}, {"measurement": "fluorescence intensity", "setting": "[7]; [20]", "result": 12, "unit": "MFI"}, {"measurement": "fluorescence intensity", "setting": "[7]; [13]", "result": 12, "unit": "MFI"}, {"measurement": "fluorescence intensity", "setting": "[7]; [14]", "result": 12, "unit": "MFI"}, {"measurement": "fluorescence intensity", "setting": "[7]; [15]", "result": 13, "unit": "MFI"}, {"measurement": "fluorescence intensity", "setting": "[7]; [16]", "result": 17.5, "unit": "MFI"}, {"measurement": "fluorescence intensity", "setting": "[8]; [17]", "result": 15, "unit": "MFI"}, {"measurement": "fluorescence intensity", "setting": "[8]; [18]", "result": 16.5, "unit": "MFI"}, {"measurement": "fluorescence intensity", "setting": "[8]; [19]", "result": 16.2, "unit": "MFI"}, {"measurement": "fluorescence intensity", "setting": "[8]; [20]", "result": 15, "unit": "MFI"}, {"measurement": "fluorescence intensity", "setting": "[8]; [13]", "result": 16, "unit": "MFI"}, {"measurement": "fluorescence intensity", "setting": "[8]; [14]", "result": 16.5, "unit": "MFI"}, {"measurement": "fluorescence intensity", "setting": "[8]; [15]", "result": 20, "unit": "MFI"}, {"measurement": "fluorescence intensity", "setting": "[8]; [16]", "result": 47.2, "unit": "MFI"}, {"measurement": "fluorescence intensity", "setting": "[9]; [17]", "result": 24.5, "unit": "MFI"}, {"measurement": "fluorescence intensity", "setting": "[9]; [18]", "result": 25, "unit": "MFI"}, {"measurement": "fluorescence intensity", "setting": "[9]; [19]", "result": 25, "unit": "MFI"}, {"measurement": "fluorescence intensity", "setting": "[9]; [20]", "result": 25.5, "unit": "MFI"}, {"measurement": "fluorescence intensity", "setting": "[9]; [13]", "result": 26.5, "unit": "MFI"}, {"measurement": "fluorescence intensity", "setting": "[9]; [14]", "result": 26, "unit": "MFI"}, {"measurement": "fluorescence intensity", "setting": "[9]; [15]", "result": 27, "unit": "MFI"}, {"measurement": "fluorescence intensity", "setting": "[9]; [16]", "result": 30.5, "unit": "MFI"}, {"measurement": "fluorescence intensity", "setting": "[10]; [17]", "result": 11, "unit": "MFI"}, {"measurement": "fluorescence intensity", "setting": "[10]; [18]", "result": 11.5, "unit": "MFI"}, {"measurement": "fluorescence intensity", "setting": "[10]; [19]", "result": 12, "unit": "MFI"}, {"measurement": "fluorescence intensity", "setting": "[10]; [20]", "result": 11, "unit": "MFI"}, {"measurement": "fluorescence intensity", "setting": "[10]; [13]", "result": 11.5, "unit": "MFI"}, {"measurement": "fluorescence intensity", "setting": "[10]; [14]", "result": 10.5, "unit": "MFI"}, {"measurement": "fluorescence intensity", "setting": "[10]; [15]", "result": 12.5, "unit": "MFI"}, {"measurement": "fluorescence intensity", "setting": "[10]; [16]", "result": 16, "unit": "MFI"}, {"measurement": "fluorescence intensity", "setting": "[11]; [17]", "result": 23.5, "unit": "MFI"}, {"measurement": "fluorescence intensity", "setting": "[11]; [18]", "result": 24, "unit": "MFI"}, {"measurement": "fluorescence intensity", "setting": "[11]; [19]", "result": 25, "unit": "MFI"}, {"measurement": "fluorescence intensity", "setting": "[11]; [20]", "result": 24.5, "unit": "MFI"}, {"measurement": "fluorescence intensity", "setting": "[11]; [13]", "result": 24.5, "unit": "MFI"}, {"measurement": "fluorescence intensity", "setting": "[11]; [14]", "result": 24.5, "unit": "MFI"}, {"measurement": "fluorescence intensity", "setting": "[11]; [15]", "result": 26, "unit": "MFI"}, {"measurement": "fluorescence intensity", "setting": "[11]; [16]", "result": 34.8, "unit": "MFI"}, {"measurement": "fluorescence intensity", "setting": "[12]; [17]", "result": 17, "unit": "MFI"}, {"measurement": "fluorescence intensity", "setting": "[12]; [18]", "result": 16, "unit": "MFI"}, {"measurement": "fluorescence intensity", "setting": "[12]; [19]", "result": 16.5, "unit": "MFI"}, {"measurement": "fluorescence intensity", "setting": "[12]; [20]", "result": 16, "unit": "MFI"}, {"measurement": "fluorescence intensity", "setting": "[12]; [13]", "result": 16, "unit": "MFI"}, {"measurement": "fluorescence intensity", "setting": "[12]; [14]", "result": 16.5, "unit": "MFI"}]}]}
